# Data taken from PubChem BioAssay AID2551 (National Center for Advancing Translational Sciences (NCATS), 2010).
# Chains of the proteins cited; added tags and fusions are not shown. Lines headed by an entry give the natural chain unless they say otherwise; changes in a name come on top.
# UniProt P51450: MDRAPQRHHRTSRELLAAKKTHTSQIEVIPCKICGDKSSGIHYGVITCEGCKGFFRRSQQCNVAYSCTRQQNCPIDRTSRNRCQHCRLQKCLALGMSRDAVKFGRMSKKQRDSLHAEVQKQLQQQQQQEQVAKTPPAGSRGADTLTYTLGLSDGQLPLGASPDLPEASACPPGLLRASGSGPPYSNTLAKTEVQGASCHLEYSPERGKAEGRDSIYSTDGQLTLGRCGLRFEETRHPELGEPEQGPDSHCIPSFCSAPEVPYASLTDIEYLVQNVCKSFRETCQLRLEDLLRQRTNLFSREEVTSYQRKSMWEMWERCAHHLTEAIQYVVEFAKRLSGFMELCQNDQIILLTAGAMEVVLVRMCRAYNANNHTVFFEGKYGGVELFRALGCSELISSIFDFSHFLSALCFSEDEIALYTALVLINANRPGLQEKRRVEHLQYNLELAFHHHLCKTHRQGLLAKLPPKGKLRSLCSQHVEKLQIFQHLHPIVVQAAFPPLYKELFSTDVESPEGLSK
# The campaign covered roughly 310,000 compounds. About 17,000 (5.5%) were called active. This list was built around the results that the source calls inconclusive (neither active nor inactive); the mix of calls is not that of the screen. Calls come from the whole dose curve; as a rule, active = well fitted inhibition curve with a large enough effect; inconclusive = small, poorly fitted or top-dose-only effect, or effect the other way; inactive = no such curve, though single readings can be large or run the other way. Potencies beside an inconclusive call are fits to weak or partial responses and may not hold up.
# Molecular target: Nuclear receptor ROR-gamma (Mus musculus) (UniProt P51450)
# Experiment: qHTS for inhibitors of ROR gamma transcriptional activity; note: nearly all actives have a fitted effect of over 60% in size
# Settings: Drosophila S2 Gal4-RORgamma UAS-luciferase reporter, 20 h; activity change, negative = inhibition: at 53.6 µM (top of the series)
# Summary of the method: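 ROR gamma transcriptional activity was tracked as Gal4-UAS luciferase output in stably transfected Drosophila Schneider cells, with compound added 1 hr before 700 uM copper sulfate induction and a 20 hr ambient-temperature incubation.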
# % is set by controls: 0 for no effect and ±100 for the full control effect; potency is the fitted concentration of half-maximal effect.
Structure (SMILES),Potency,"activity change, negative = inhibition"
CC(C)c1nc(SCC(=O)Nc2cccc(C(F)(F)F)c2)c2c(=O)n(C)c(=O)n(C)c2n1,"inconclusive: 28.2 µM [activator, single point]",–
COC(=O)C(NC(=O)COc1ccccc1)(Nc1nc2c(s1)CCCC2)C(F)(F)F (stereo not drawn),"inconclusive: 35.5 µM [inhibitor, single point]",–
Cc1ccnc(NC(=O)c2ccccc2NC(=O)c2ccccc2)c1,"inconclusive: 15.8 µM [inhibitor, single point]",–
CCCCNC(=O)CSc1nc(N)c(C(=O)Nc2ccc(OC)cc2)s1,"inconclusive: 15.8 µM [activator, single point]",–
CCC(CC)c1nnc(NC(=O)/C=C/c2ccco2)s1,"inconclusive: 10 µM [inhibitor, partial curve]",–
CN(C)/N=C/C=C1\CCC/C(=C\c2ccc(F)c(F)c2)C1=O,"inconclusive: 3.55 µM [inhibitor, single point]",–
CC(Cc1ccccc1)C(=O)NCC1CC1 (stereo not drawn),–,inactive: -24.1%
CC(/C=N/NC(=O)c1cccs1)=C\c1ccccc1,"inconclusive: 2.24 µM [activator, partial curve]",–
Cc1ccc(N2NC(=O)/C(=C\c3cc4c(cc3[N+](=O)[O-])OCO4)C2=O)cc1C,–,inactive: -117%
CCCn1c(CNS(=O)(=O)c2ccc(C)cc2)nc2ccccc21,active: 11.2 µM,–
O=C(NCC1CCCO1)C(c1ccc(F)cc1)N(C(=O)Cn1nnc(-c2ccc(F)cc2)n1)c1cccc(O)c1 (stereo not drawn),"inconclusive: 15.8 µM [activator, partial curve, poor fit]",–
COCc1nc2oc3ccccc3c(=O)c2cc1C(=O)OC,–,inactive: -10.5%
COc1cc(/C=N/NC(=O)c2ccncc2)ccc1OCC(=O)Nc1ccc(C)c(C)c1,–,inactive: -21.1%
COc1cccc(S(=O)(=O)Nc2ccc(C(=O)N3CCN(C(=O)c4ccco4)CC3)cc2)c1,"inconclusive: 14.1 µM [activator, single point]",–
Cc1ccc2nc(-c3ccc(N4C(=O)CC(N5CCCC(C)C5)C4=O)cc3)sc2c1 (stereo not drawn),–,inactive: -14.7%
Cc1cccc(S(=O)(=O)Nc2nc3ccccc3nc2Nc2ccc3c(c2)OCO3)c1,"inconclusive: 2.51 µM [activator, partial curve]",–
COc1ccc(OC2CCN(S(=O)(=O)c3ccc(OC)cc3)CC2)cc1,"inconclusive: 12.6 µM [activator, single point]",–
COC(=O)c1ccc(Cl)c(NC(=O)CN(c2ccccc2)S(=O)(=O)c2ccc(OC)cc2)c1,"inconclusive: 14.1 µM [activator, single point]",–
c1ccc(OCCSc2nc3ccccc3o2)cc1,"inconclusive: 25.1 µM [activator, single point]",–
Cc1ccc(-c2noc(CSc3nc(N)cc(N)n3)n2)cc1,"inconclusive: 8.91 µM [activator, partial curve]",–
Cc1ccccc1[C@@H](OCCN(C)C)c1ccccc1,–,inactive: -16% [at 16.9 µM]
Cc1noc(C)c1C(=O)OCC(=O)Nc1cc(Cl)ccc1Oc1ccccc1,"inconclusive: 35.5 µM [inhibitor, single point]",–
CCCC[C@@H](C)/C=C(C)/C=C(\C)C(=O)NC1=C[C@@](O)(/C=C/C=C/C=C/C(=O)NC2=C(O)CCC2=O)[C@@H]2O[C@@H]2C1=O,active: 0.447 µM,–
CC1(C)CC(=O)C(C2C3=C(CC(C)(C)CC3=O)Oc3c(Br)cc(Br)cc32)=C(O)C1 (stereo not drawn),"inconclusive: 25.1 µM [inhibitor, single point]",–
CN1/C(=C\C=C2/SC(=S)NC2=O)C(C)(C)c2ccccc21,"inconclusive: 35.5 µM [inhibitor, single point]",–

Structure (SMILES),Potency,"activity change, negative = inhibition"
C#CCn1cc(/C=N/Nc2nc3ccccc3[nH]2)c2ccccc21,active: 15.8 µM,–
Cc1ccc(Nc2c([N+](=O)[O-])c(=O)oc3ccccc23)cc1,–,inactive: 4.21%
CC(=O)Nc1nonc1NC(=O)CSc1nc2ccccc2o1,active: 0.794 µM,–
CC(C)c1ccc(NC(=O)N2CCN(S(=O)(=O)c3ccccc3)CC2)cc1,"inconclusive: 22.4 µM [activator, single point]",–
O=C(Nc1nccs1)c1cccc2ccccc12,"inconclusive: 20 µM [inhibitor, partial curve, poor fit]",–
COCCCNc1nc2c(c(=O)n(C)c(=O)n2C)n1Cc1cccc(OC)c1,"inconclusive: 15.8 µM [activator, single point]",–
CCC(CC)C(=O)NC12CC3CC(CC(C3)C1)C2,–,inactive: -22.5%
Cc1ccc(S(=O)(=O)N(C)C)cc1NC(=S)Nc1ccc2cn[nH]c2c1,"inconclusive: 14.1 µM [inhibitor, single point]",–
CCC(=O)c1ccc(OCCSc2ncccn2)cc1,active: 11.2 µM,–
Cc1ccccc1OCCOC(=O)c1c(-c2ccccc2)noc1C,"inconclusive: 35.5 µM [activator, single point]",–
COc1cc(OC)c2c(c1O)OC(c1ccccc1)CC2=O (stereo not drawn),–,inactive: 15.8%
CCc1ccc(-c2nc(CSCC(=O)N3CCN(c4ccccn4)CC3)c(C)o2)cc1,"inconclusive: 14.1 µM [inhibitor, partial curve]",–
CSc1nc(N2CCN(c3ccccc3)CC2)cc(N2CCN(c3ccccc3)CC2)n1,–,inactive: -5.09%
Fc1ccc2[nH]c3c(Cl)ncnc3c2c1,–,inactive: -15.8%
CCCC(=O)N1CCN(c2nc3ccccc3s2)CC1,"inconclusive: 17.8 µM [inhibitor, single point]",–
Cc1cccc(Cn2ncc(Cl)c(Cl)c2=O)c1,"inconclusive: 12.6 µM [inhibitor, single point]",–
O=C(CSc1cccc[n+]1[O-])CSc1cccc[n+]1[O-],active: 3.98 µM,–
Cn1c(Cn2nnc3ccccc32)nnc1SCC(=O)N1c2ccccc2CCc2ccccc21,"inconclusive: 11.2 µM [activator, partial curve]",–
O=C(Nc1ccc(NC(=O)c2ccc3c(c2)OCCO3)cc1)c1ccccc1,"inconclusive: 14.1 µM [inhibitor, single point]",–
Cc1cc(C)cc(NC(=O)Nc2cccc(S(N)(=O)=O)c2)c1,"inconclusive: 35.5 µM [activator, single point]",–
COC(=O)c1ccc(Cl)c(NC(=O)c2cccc([N+](=O)[O-])c2C)c1,–,inactive: 1.17%
COc1ccc(N2CCN(c3nc(Cl)nc(Nc4ccc(F)cc4)n3)CC2)cc1,"inconclusive: 25.1 µM [activator, single point]",–
O=C(O)/C=C/C(=O)Nc1ccc(C(=O)c2ccccc2)cc1,"inconclusive: 12.6 µM [activator, partial curve]",–
N#CC(c1ccccc1)N(CCCCl)C(=O)c1ccc(Br)cc1 (stereo not drawn),"inconclusive: 14.1 µM [activator, partial curve]",–
O=C(NC1CCCCCCC1)C1CCN(c2nc3ccccc3o2)CC1,–,inactive: -19.1%

Structure (SMILES),Potency,"activity change, negative = inhibition"
CCOC(=O)c1c(-c2ccccc2)csc1NC(=S)NC(=O)c1ccccc1,active: 2.82 µM,–
Cn1nccc1C(=O)NC1CCCc2c1cnn2-c1cc(F)cc(F)c1 (stereo not drawn),"inconclusive: 20 µM [activator, single point]",–
CC1CC(C)(C)NC(=S)N1CCCC(=O)NCCc1ccc(Cl)cc1 (stereo not drawn),active: 12.6 µM,–
CCCSc1nc(N2CCCC2)c2c(c1C#N)CC(C)(C)OC2,–,inactive: 35%
CCC(C)(C)C1CCC2(CC1)NC(=S)N(c1ccccc1)N2 (stereo not drawn),"inconclusive: 15.8 µM [inhibitor, single point]",–
O=C(NC(=S)Nc1cccc2cnccc12)c1ccccc1,active: 10 µM,–
COc1cc2c(cc1OC)C(c1ccc3c(c1)OCO3)C1=C(CC(C)(C)CC1=O)N2 (stereo not drawn),–,inactive: -22.1%
CCc1nnc(NC(=O)CSc2ncc(-c3ccccc3)[nH]2)s1,active: 6.31 µM,–
COc1cc(C(=O)OCC(=O)NCc2ccc(F)cc2)cc(NC(=O)c2cccs2)c1OC,"inconclusive: 3.16 µM [inhibitor, single point]",–
CCOC(=O)c1ccc(N=c2sc(C(=O)OC)cc(=O)n2-c2ccc(C(=O)OCC)cc2)cc1,"inconclusive: 35.5 µM [inhibitor, single point]",–
O=C(NCCc1ccccc1)c1ccc2[nH]c(=O)c(=O)[nH]c2c1,–,inactive: -1.3%
CN(C)CCCNc1cc(C(C)(C)C)nc2c(-c3ccccc3)cnn12,active: 1.41 µM,–
O=C(CSc1nc2ccccc2c(=O)n1-c1ccc(F)cc1)Nc1cc(S(=O)(=O)N2CCOCC2)ccc1Cl,–,inactive: 20.6%
CSc1ccccc1NC(=O)CN(C)CC(=O)Nc1ccccc1C(F)(F)F,active: 8.91 µM,–
COc1ccc2o/c(=N\O)c(C(=O)Nc3ccccc3OC)cc2c1,active: 2.82 µM,–
O=C(NCCc1ccccc1)C1CCN(C2CCN(Cc3ccco3)CC2)CC1,"inconclusive: 15.8 µM [activator, single point]",–
COc1ccc2c(c1)C(NC(=O)C(F)(F)F)CC2=O (stereo not drawn),–,inactive: 11%
CCOC(=O)CCCOC(=O)c1ccc(S(=O)(=O)N(C)C)cc1,"inconclusive: 25.1 µM [inhibitor, single point]",–
CCCN(CCC)S(=O)(=O)c1ccc(C(=O)Nc2nnc(CSC)o2)cc1,active: 0.891 µM,–
COc1cc(CO)ccc1OCC(=O)Nc1ccc(Br)cc1,"inconclusive: 17.8 µM [inhibitor, single point]",–
CCC(C)NC(=O)CSc1nnc(-c2cc(OC)c(OC)c(OC)c2)c(-c2cc(OC)c(OC)c(OC)c2)n1 (stereo not drawn),active: 2.82 µM,–
Oc1ccc(NCc2ccc(OCc3ccccc3)cc2)cc1,"inconclusive: 35.5 µM [inhibitor, single point]",–
Cc1[nH]c2ccc(-c3n[nH]c(=S)n3-c3ccc(Br)cc3)cc2c1C,active: 7.94 µM,–

# 5 of the compounds above, with bars between the fields:
Structure (SMILES) | Potency | activity change, negative = inhibition
Cc1cc(C)cc(NC(=O)Nc2cccc(S(N)(=O)=O)c2)c1 | inconclusive: 35.5 µM [activator, single point] | –
COC(=O)c1ccc(Cl)c(NC(=O)c2cccc([N+](=O)[O-])c2C)c1 | – | inactive: 1.17%
COc1ccc(N2CCN(c3nc(Cl)nc(Nc4ccc(F)cc4)n3)CC2)cc1 | inconclusive: 25.1 µM [activator, single point] | –
O=C(O)/C=C/C(=O)Nc1ccc(C(=O)c2ccccc2)cc1 | inconclusive: 12.6 µM [activator, partial curve] | –
N#CC(c1ccccc1)N(CCCCl)C(=O)c1ccc(Br)cc1 (stereo not drawn) | inconclusive: 14.1 µM [activator, partial curve] | –
